Results published in PubChem BioAssay AID330 (DTP/NCI, 2004).
The list is a part of this screen's results and no random one: it gathers tests that were run many times, whatever their T/C, doses with no T/C, and many T/C values between a quarter and a half above the control. Other doses and runs of a compound stand elsewhere. T/C: endpoint of the treated group in % of that of the vehicle group. Some doses have a count of surviving animals in place of a T/C: the source holds a T/C of zero for them, seemingly a mark for toxic or unscored doses. Some survivor counts are full or nearly so, which does not show that the dose was tolerated: the source hardly ever lists a survival T/C far under the control, and the zero likely stands for such cases as well. Counts of survivors are from the toxicity check (mostly the fifth day) where no day follows; animals may have died later. Schedules are NCI's codes, taken here to give the interval after Q, in days (D) or hours (H), and the number of doses after X. Some entries hold several experiments; their values stand side by side, smallest first. For survival time, this PubChem deposit counts one and a half times the control or more as active, and values a quarter to a half above the control carry no call in these data; other NCI protocols may use other cut-offs.

Tested on: P388 leukemia ip, CD2F1 mice, survival T/C
Assay: NCI In Vivo Anticancer Drug Screen. Data for tumor model P388 Leukemia (intraperitoneal) in CD2F1 (CDF1) mice
Conditions: T/C endpoint: median survival time, higher T/C = longer survival
[1] = dose: 240.0 mg/kg/injection, schedule: Q01DX005 (ip), vehicle: saline with Tween-80
[2] = dose: 100.0 mg/kg/injection, schedule: Q04DX003 (ip), vehicle: saline with Tween-80
[3] = dose: 200.0 mg/kg/injection, schedule: Q04DX003 (ip), vehicle: saline with Tween-80
[4] = dose: 400.0 mg/kg/injection, schedule: Q04DX003 (ip), vehicle: saline with Tween-80
[5] = dose: 100.0 mg/kg/injection, schedule: Q01DX009 (ip), vehicle: saline with Tween-80
[6] = dose: 200.0 mg/kg/injection, schedule: Q01DX009 (ip), vehicle: saline with Tween-80
[7] = dose: 50.0 mg/kg/injection, schedule: Q01DX009 (ip), vehicle: Klucel (hydroxypropylcellulose) (HPC)
[8] = dose: 100.0 mg/kg/injection, schedule: Q01DX009 (ip), vehicle: Klucel (hydroxypropylcellulose) (HPC)
[9] = dose: 200.0 mg/kg/injection, schedule: Q01DX009 (ip), vehicle: Klucel (hydroxypropylcellulose) (HPC)
[10] = dose: 400.0 mg/kg/injection, schedule: Q01DX009 (ip), vehicle: Klucel (hydroxypropylcellulose) (HPC)
[11] = dose: 400.0 mg/kg/injection, schedule: Q01DX009 (ip), vehicle: saline with Tween-80
[12] = dose: 100.0 mg/kg/injection, schedule: Q01DX005 (ip), vehicle: Klucel (hydroxypropylcellulose) (HPC)
[13] = dose: 200.0 mg/kg/injection, schedule: Q01DX005 (ip), vehicle: Klucel (hydroxypropylcellulose) (HPC)
[14] = dose: 200.0 mg/kg/injection, schedule: Q01DX009 (ip), vehicle: saline

SMILES: C=C1C(=O)C(CCC)=C(CC)C1O (centres undefined)
- survivor count (dose: 120.0 mg/kg/injection, schedule: Q01DX005 (ip), vehicle: saline with Tween-80): 0 of 6
- survivor count [1]: 0 of 6

SMILES: CSc1nccn[n+]1C
- survivor count (dose: 400.0 mg/kg/injection, schedule: Q01DX001 (ip), vehicle: saline): 0 of 6

SMILES: O=[N+]([O-])c1cc2[nH]cnc2c([N+](=O)[O-])c1N1CCOCC1
- survivor count [2]: 3 of 6
- survivor count [3]: 2 of 6
- survivor count [4]: 0 of 6

SMILES: COc1cc(C2(C3C(CO)OC(=O)C3Cc3ccc4c(c3)OCO4)SCCCS2)cc(OC)c1OC (centres undefined)
- survivor count (dose: 100.0 mg/kg/injection, schedule: Q04DX002 (ip), vehicle: saline with Tween-80): 6 of 6

SMILES: [Br][Sn]([Br])([S]c1ccccn1)[S]c1ccccn1
- survivor count [5]: 6 of 6

SMILES: O=C(Nc1cccc(Cl)c1)ON1C(=O)C2C(C1=O)C1(Cl)C(Cl)C(Cl)C2(Cl)C1(Cl)Cl (centres undefined)
- T/C (dose: 50.0 mg/kg/injection, schedule: Q01DX009 (ip), vehicle: saline with Tween-80): 131 % of control
- T/C [6]: 128 % of control

SMILES: CCSC(=Nc1nc2ccc(NC(C)=O)cc2s1)SCC
- survivor count [7]: 6 of 6
- survivor count [8]: 6 of 6
- survivor count [9]: 3 of 6

SMILES: CC(=O)Nn1cnc2c(SCc3ccccc3)ncnc21
- T/C [3]: 125 % of control
- survivor count [10]: 3 of 6
- survivor count [4]: 5 of 6

SMILES: CC(C)(C)C(CCC(=O)O)CC(=O)O (centres undefined)
- survivor count (dose: 400.0 mg/kg/injection, schedule: Q04DX003 (ip), vehicle: saline): 4 of 6

SMILES: CCCC/C=C\CCCCCCCCCC1=C(O)C(=O)C=C(OC)C1=O
- survivor count (dose: 51.0 mg/kg/injection, schedule: Q01DX005 (ip), vehicle: Klucel (hydroxypropylcellulose) (HPC)): 3 of 6
- survivor count (dose: 102.0 mg/kg/injection, schedule: Q01DX005 (ip), vehicle: Klucel (hydroxypropylcellulose) (HPC)): 0 of 6
- survivor count (dose: 204.0 mg/kg/injection, schedule: Q01DX005 (ip), vehicle: Klucel (hydroxypropylcellulose) (HPC)): 0 of 6

SMILES: CC(c1ccccc1)C(OC(=O)c1ccc([N+](=O)[O-])cc1)c1ccccc1 (centres undefined)
- survivor count [5]: 6 of 6
- survivor count [6]: 6 of 6
- survivor count [11]: 5 of 6

SMILES: Cc1ccc(N/N=c2\c3nc4ccccc4nc2n(-c2ccccc2C)c(=S)n3-c2ccc(C)cc2)cc1
- survivor count [1]: 2 of 6

SMILES: CC(=O)OC1C=CC(O)N(C(C)=O)C1SC(C)(C)C (centres undefined)
- survivor count (dose: 100.0 mg/kg/injection, schedule: Q01DX009 (ip), vehicle: distilled water + Tween-80 + alcohol): 0 of 6
- survivor count (dose: 200.0 mg/kg/injection, schedule: Q01DX009 (ip), vehicle: distilled water + Tween-80 + alcohol): 1 of 6
- survivor count (dose: 400.0 mg/kg/injection, schedule: Q01DX009 (ip), vehicle: distilled water + Tween-80 + alcohol): 0 of 6

SMILES: c1ccc(-c2cn3ccccc3n2)cc1
- survivor count [10]: 1 of 6

SMILES: COC(=O)c1nc(N)nc(C(=O)OC)c1C(=O)C(C)(C)C
- survivor count [1]: 0 of 6

SMILES: Cc1ccc2c(c1)N=C(Nc1ccccc1)N=S2(C)=O (centres undefined)
- T/C [5]: 137 % of control
- survivor count [6]: 6 of 6

SMILES: CNc1ncnc2ccccc12
- survivor count [6]: 0 of 6

SMILES: CC12CCC(OC3OC(CO)C(O)C(O)C3O)C=C1CCC1C2CCC2(C)C(c3ccc(=O)oc3)CCC12 (centres undefined)
- survivor count (dose: 50.0 mg/kg/injection, schedule: Q01DX005 (ip), vehicle: Klucel (hydroxypropylcellulose) (HPC)): 0 of 6 and 1 of 6
- survivor count [12]: 0 of 6
- survivor count [13]: 0 of 6

SMILES: Nc1nc(-c2cccnc2)cc2ccccc12
- survivor count [2]: 0 of 6
- survivor count [3]: 0 of 6
- survivor count [4]: 0 of 6

SMILES: CC1(C)N=C(N)N=C(N)N1c1ccc(Cl)cc1
- T/C (dose: 50.0 mg/kg/injection, schedule: Q01DX005 (ip), vehicle: saline): 126 % of control
- survivor count (dose: 100.0 mg/kg/injection, schedule: Q01DX005 (ip), vehicle: saline): 0 of 5
- survivor count (dose: 200.0 mg/kg/injection, schedule: Q01DX005 (ip), vehicle: saline): 0 of 5

SMILES: CCCCCCCCCCCCCC[N+]1([O-])CCCCCC1
- survivor count (dose: 100.0 mg/kg/injection, schedule: Q01DX009 (ip), vehicle: saline): 4 of 6
- survivor count [14]: 0 of 6

SMILES: C[n+]1c(-c2ccccc2)c2ccccn2c1Sc1n2ccccc2c(-c2ccccc2)[n+]1C
- survivor count (dose: 12.5 mg/kg/injection, schedule: Q01DX009 (ip), vehicle: Klucel (hydroxypropylcellulose) (HPC)): 0 of 6
- survivor count (dose: 25.0 mg/kg/injection, schedule: Q01DX009 (ip), vehicle: Klucel (hydroxypropylcellulose) (HPC)): 0 of 6
- survivor count [7]: 0 of 6
- survivor count [8]: 0 of 6
- survivor count [9]: 0 of 6

SMILES: CCC1(O)C(=O)OCc2c1cc1n(c2=O)Cc2cc3cc4c(cc3nc2-1)OCO4 (centres undefined)
- survivor count (dose: 4.0 mg/kg/injection, schedule: Q01DX005 (ip), vehicle: saline with Tween-80): 6 of 6
- survivor count (dose: 8.0 mg/kg/injection, schedule: Q01DX005 (ip), vehicle: saline with Tween-80): 6 of 6
- survivor count (dose: 16.0 mg/kg/injection, schedule: Q01DX005 (ip), vehicle: saline with Tween-80): 4 of 6

SMILES: CC1(C)N=C(NN=C2CCCCC2)SP1(=O)NNc1ncccn1 (centres undefined)
- survivor count (dose: 120.0 mg/kg/injection, schedule: Q01DX005 (ip), vehicle: Klucel (hydroxypropylcellulose) (HPC)): 3 of 6
- survivor count (dose: 240.0 mg/kg/injection, schedule: Q01DX005 (ip), vehicle: Klucel (hydroxypropylcellulose) (HPC)): 0 of 6

SMILES: CCOC(=O)C(=CC(CC)(C(=O)OCC)C(=O)OCC)C(=O)OCC
- T/C [4]: 125 % of control

SMILES: O=C(O)c1ccccc1SSc1ccccc1C(=O)O
- survivor count [9]: 4 of 6
- survivor count [10]: 0 of 6

SMILES: CC1OC(O[C@H]2CC[C@]3(C=O)[C@H]4CC[C@]5(C)[C@@H](C6=COC(=O)C6)CC[C@]5(O)[C@@H]4CC[C@]3(O)C2)C(O)C(O)C1OC1OC(CO)C(O)C(O)C1O (some centres undefined)
- survivor count [12]: 3 of 6
- survivor count [13]: 1 of 6

SMILES: O=C(NNC(=O)c1ccc(Cl)cc1Cl)c1ccco1
- survivor count (dose: 12.5 mg/kg/injection, schedule: Q01DX009 (ip), vehicle: saline): 6 of 6
- survivor count [5]: 6 of 6
- survivor count [6]: 4 of 5

SMILES: COc1ccc(-n2c(-c3ccc(Cl)cc3)csc2=N)c(OC)c1
- survivor count [14]: 0 of 6

SMILES: CCOC(=O)[n+]1ccc(-c2cc[n+](C(=O)OCC)cc2)cc1
- survivor count (dose: 50.0 mg/kg/injection, schedule: Q01DX009 (ip), vehicle: saline): 6 of 6

SMILES: C=C1C(=O)O[C@@H]2C3=C(C)C(=O)C=C[C@]3(C)CC[C@@H]12
- survivor count (dose: 200.0 mg/kg/injection, schedule: Q04DX002 (ip), vehicle: saline with Tween-80): 4 of 6
- survivor count (dose: 400.0 mg/kg/injection, schedule: Q04DX002 (ip), vehicle: saline with Tween-80): 0 of 6

SMILES: OCC1OC([Se])C(O)C(O)C1O.[CH3][Sb][CH3] (centres undefined)
- survivor count [1]: 0 of 6

SMILES: COc1cc2ccc(CC(N)=O)cc2cc1OC
- survivor count [11]: 5 of 6

SMILES: C=C(C(=O)O)C(N)C(=O)O (centres undefined)
- survivor count (dose: 800.0 mg/kg/injection, schedule: Q01DX005 (ip), vehicle: saline): 0 of 5

SMILES: Cc1cc(C#N)c[n+](C)c1
- survivor count (dose: 240.0 mg/kg/injection, schedule: Q01DX005 (ip), vehicle: saline): 1 of 6
